Literature values, collected in patent US6365618B1, “Administration of carvedilol to mitigate tardive movement disorders, psychosis, mania, and depression” (priority 2000, dated 2002).
For at least one compound, name, drawing or mass did not settle the structure.

Experiments:
tardive dyskinesia = settings: patients switched to clozapine from another antipsychotic medication; cited from earlier work
memory after stroke = settings: 12 weeks, started 1 to 2 weeks after the stroke; cited from earlier work
essential tremor = settings: most cases; cited from earlier work
dystonias = settings: several animal models; cited from earlier work
dementia = settings: 12 week trial, elderly patients with dementia; cited from earlier work
[1] = cited from earlier work

CN1CCN(C2=Nc3cc(Cl)ccc3Nc3ccccc32)CC1 [clozapine]
patients in whom TD diminished (tardive dyskinesia): 43%

COCCOC(=O)C1=C(C)NC(C)=C(C(=O)OC(C)C)C1c1cccc([N+](=O)[O-])c1 (stereo not drawn) [nimodipine]
memory (memory after stroke): improved memory
essential tremor (essential tremor): diminished
dystonias (dystonias): mitigated
memory, performance, and mood (dementia): improved

COc1ccccc1OCCNCC(O)COc1c(O)ccc2[nH]c3ccccc3c12 (stereo not drawn) [SB209995]
antioxidant potency relative to vitamin E [1]: 1000 fold
